From patent US20260271924A1, “COMPOSITIONS FOR MODULATING PLANT GROWTH AND STRESS TOLERANCE, AND METHODS OF USE THEREOF” (The Regents of the University of California, priority 2023, published 2026) come the findings set out here.

For this series, the system named is Arabidopsis root. Put plainly: RNA-seq analysis of Arabidopsis roots. Format: in vivo, Arabidopsis thaliana. Conditions: 50 μM 4-OI, short term (6 hour).

The molecule `C=C(CC(=O)OCCCCCCCC)C(=O)O` [4-OI, 4-octyl itaconate] registered a genes downregulated of 1028 genes and a genes upregulated of 814 genes.
